Data: patent publication US5110927A (The United States of America as represented by the …, priority 1987, dated 1992)
Some of these results come from one statement about several compounds together.

Test system: α1-adrenoceptor (3H-prazosin binding sites)
Assay: displacement of 3H-prazosin from rat cerebral cortical (brain) membranes
Settings: discussion of Table 1
Procedure: IC50 values and apparent Ki values were determined as in Table 1.
Rat brain cortices were homogenized in approximately 30 volumes/wet weight of 50 mM Tris buffer, pH 7.4, containing 10 mM MgCl2 by use of a Polytron (setting 6 for 10 seconds). It should be noted that this buffer was used throughout the experimental procedures. The homogenate was centrifuged at 48,000×g for 10 minutes in a Sorvall RC-5B centrifuge. The resulting pellet was resuspended in buffer by use of a Polytron and recentrifuged. This process was repeated and the pellet was resuspended in approximately 200 volumes for affinity studies or 20 volumes for irreversibility experiments.
Specific binding was defined as the difference between total binding (measured in the absence of any ligand) and non-specific binding (measured in the presence of 10 microM phentolamine). Duplicate tubes were used for each condition. Reaction tubes were incubated for 30 minutes at 30° C., then diluted to 5 ml with ice cold buffer, and filtered under reduced pressure through Whatman GF/C glass fiber filters. The reaction tubes and filters were washed three additional times with buffer.

Row | SMILES | affinity to alpha1-adrenoceptors (in words)
1 | COc1cc2nc(N3CCN(C(=S)Nc4ccc(N=C=S)cc4)CC3)nc(N)c2cc1OC [Compound 34] | decreased the affinity
2 | COc1cc2nc(N3CCN(C(=S)Nc4cccc(N=C=S)c4)CC3)nc(N)c2cc1OC [Compound 35] | decreased the affinity
